The source of these data is patent publication US10538490B2, “Benzylaminopyridylcyclopropanecarboxylic acids, pharmaceutical compositions and uses thereof” (Boehringer Ingelheim International GmbH, priority 2016, dated 2020).

The chains behind the UniProt entries cited, without tags or fusion partners.
UniProt O14842, whole entry: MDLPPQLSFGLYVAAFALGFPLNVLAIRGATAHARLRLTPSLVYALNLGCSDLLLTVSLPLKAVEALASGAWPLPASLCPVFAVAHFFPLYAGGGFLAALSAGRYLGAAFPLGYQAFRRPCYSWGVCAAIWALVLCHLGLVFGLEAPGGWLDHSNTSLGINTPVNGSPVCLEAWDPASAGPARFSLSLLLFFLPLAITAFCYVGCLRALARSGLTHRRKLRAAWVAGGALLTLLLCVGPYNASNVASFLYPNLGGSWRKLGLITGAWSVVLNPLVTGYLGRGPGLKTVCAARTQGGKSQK

Each structure is given as a SMILES string. pEC50: −log10 of the molar value. Structures were worked out from names or drawings and are uncertain.

The target in this assay is human GPR40 receptor (Homo sapiens, UniProt O14842). Briefly: IP1 accumulation measurements using the IPOne assay system. The conditions noted are these: 1321N1 cells stably expressing human GPR40 receptor, stimulation 1 h at 37° C. Format: cell-based. On the procedure:
IP1 accumulation measurements using the IPOne assay system—1321N1 cells stably expressing human GPR40 receptor (Euroscreen, Belgium) are seeded 24 h before the assay in white 384-well plates in culture medium containing 10% FCS, 1% Na-Pyruvate and 400 μg/mL G418. IPi is assayed according to the manufacturer's description (Cisbio Bioassays, France). In brief, the assay is started by substitution of the culture medium by stimulation buffer (Hepes 10 mM, CaCl2 1 mM, MgCl2 0.5 mM, KCl 4.2 mM, NaCl 146 mM, glucose 5.5 mM and LiCl 50 mM, pH 7.4). Cells are stimulated for 1 h at 37° C., 5% CO2 by addition of the compounds that are diluted in stimulation buffer containing LiCl. Assays are stopped by adding HTRF-conjugates (IP1-d2 and Anti-IP1 cryptate Tb) and lysis buffer, provided by the manufacturer. After an incubation time of 1 h at room temperature plates are measured using an EnVision™, Perkin Elmer. The obtained fluorescence ratios at 665/615 […] are then used to calculate the pEC50 values using Assay Explorer 3.3 Software (Accelrys, Inc.) by interpolation using an IP1 reference curve and subsequent sigmoidal curve fitting allowing for a variable hill slope.

Take `Cc1cc(O)cc(C)c1-c1ccc(F)c(CNc2ccc(C3CC3C(=O)O)cn2)c1` (stereo not shown): the pEC50 was 7.59.
